In the supplement of paper PMC8616043 one finds Z-score data, which are given here for 43 compounds.

The structures appear in SMILES notation. Structures can show the parent of a compound that is named as a salt. This is one part of the list. Repeats in this data set agree poorly, so a single value says little.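 Human U-2 OS cells stably expressing a GFP sensor with a nuclear import signal and classical export signal were transfected to produce PR50, a 50-repeat proline–arginine dipeptide from ALS/FTD gene C9ORF72. Nuclear-minus-cytoplasm GFP was scaled from DMSO (low) to PR-only (high), scored against plate test wells; strongly negative scores marked PR-reversing hits.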

The test system of the test is U-2 OS NCT-C biosensor cells expressing PR50. Kind of test: Z-score of normalised NCT-C biosensor translocation index in PR50-expressing cells; higher = more nuclear biosensor (more disrupted nuclear export). Particulars: 3 µM; 24 h.
As for `O=C(O)c1cc(N(Cc2ccccc2O)Cc2ccccc2O)ccc1O` [Lavendustin B], the Z-score was inactive: -0.42.
As for `N[C@@H](C(=O)N[C@@H]1C(=O)N2C(C(=O)O)=C(Cl)CS[C@H]12)c1ccccc1` [Cefaclor], the Z-score was inactive: 0.0724.
With `CCN(c1cc(-c2ccc(CN3CCOCC3)cc2)cc(C(=O)NCc2c(C)cc(C)[nH]c2=O)c1C)C1CCOCC1`, the Z-score is active: -2.97.
The figure for `CN(C)[C@@H]1C(O)=C(C(N)=O)C(=O)[C@@]2(O)C(O)=C3C(=O)c4c(O)ccc(Cl)c4[C@@H](O)[C@H]3C[C@@H]12` [Demeclocycline hydrochloride] is inactive: -0.552; for `CN(C)[C@@H]1C(O)=C(C(N)=O)C(=O)[C@@]2(O)C(O)=C3C(=O)c4c(O)ccc(Cl)c4[C@@H](O)[C@H]3C[C@@H]12` [Demeclocycline·HCl] it is inactive: 0.11.
The result for `CC(N)C12CC3CC(CC(C3)C1)C2` (stereo not drawn) [Rimantadine·HCl] reads inactive: 0.067; that for `Nc1cc(-c2ccncc2)c[nH]c1=O` [Amrinone], inactive: 0.506.
The result for `COc1ccc(C[C@@H]2c3cc(OC)c(OC)cc3CC[N@+]2(C)CCC(=O)OCCCCCOC(=O)CC[N@@+]2(C)CCc3cc(OC)c(OC)cc3[C@H]2Cc2ccc(OC)c(OC)c2)cc1OC` [Cisatracurium Besylate] reads inactive: 0.457.
`CCC(=O)OCC(=O)[C@@]1(OC(=O)CC)[C@H](C)C[C@H]2[C@H]3[C@H]([C@@H](O)C[C@@]21C)[C@@]1(C)C=CC(=O)C=C1C[C@H]3Cl` [Alclometasone dipropionate]: the Z-score is inactive: -0.042.
In the case of `CN(CCOc1ccc(CC2SC(=O)NC2=O)cc1)c1ccccn1` (stereo not drawn) [Rosiglitazone], the Z-score is inactive: -1.34.
`CN(C)CC[C@@H](c1ccc(Cl)cc1)c1ccccn1` [Dexchlorpheniramine Maleate]: the Z-score is inactive: -0.45.
As for `N=C(N)N/N=C/c1c(Cl)cccc1Cl` [Guanabenz Acetate], the Z-score is active: -2.36.
On to `N=C(N)N/N=C/c1c(Cl)cccc1Cl` [Guanabenz acetate], for which the Z-score was inactive: -0.281.
Turning to `NC(=O)[C@H](CCCN=C(N)CCl)NC(=O)c1ccccc1` [Cl-Amidine], the Z-score is active: -2.21.
With `CCCc1nc(C(C)(C)O)c(C(=O)O)n1Cc1ccc(-c2ccccc2-c2nnn[nH]2)cc1` [Olmesartan], the Z-score was active: -2.05.
With `CN(C)CCOC(=O)COc1ccc(Cl)cc1` [Centrophenoxine hydrochloride], the Z-score was inactive: 0.474.
In the case of `Brc1c(NC2=NCCN2)ccc2nccnc12` [Brimonidine], the Z-score is inactive: -0.642.
Take `Brc1c(NC2=NCCN2)ccc2nccnc12`: the Z-score was inactive: -0.0645.
`Nc1cccc2c1CN(C1CCC(=O)NC1=O)C2=O` (stereo not drawn) [Lenalidomide]: the Z-score is inactive: 0.0706.
The figure for `Cc1cccc2c3c(ccc12)C1=C(C(=O)C3=O)C(C)CO1` (stereo not drawn) [Dihydrotanshinone] is inactive: -0.213; for `COc1ccc2[nH]c([S+]([O-])Cc3ncc(C)c(OC)c3C)nc2c1` (stereo not drawn) [Omeprazole] it is inactive: -0.191.
`O=C1N(c2ccccc2)c2ccccc2C1(Cc1ccncc1)Cc1ccncc1` [Linopirdine]: the Z-score is inactive: -0.216.
Regarding `CCCn1c(=O)c2[nH]c(-c3ccc(S(=O)(=O)O)cc3)nc2n(CCC)c1=O` [1,3-Dipropyl-8-p- sulfophenyl xanthine], the Z-score is inactive: -0.0424.
The figure for `Cc1ccccc1N1C(=O)c2cc(S(N)(=O)=O)c(Cl)cc2NC1C` (stereo not drawn) [Metolazone] is inactive: -0.367; for `CN(C)CCC(c1ccc(Br)cc1)c1ccccn1` (racemic) [(±)-  Brompheniramine maleate salt] it is inactive: 3.13.
In the case of `OCCOCCN1CCN(C(c2ccccc2)c2ccc(Cl)cc2)CC1` (stereo not drawn) [Hydroxyzine Dihydrochloride], the Z-score was inactive: 0.424.
The result for `C=CC1=C(C(=O)O)N2C(=O)[C@@H](NC(=O)/C(=N\OCC(=O)O)c3csc(N)n3)[C@H]2SC1` [Cefixime] reads inactive: 0.151; that for `CCc1cccc2c3c([nH]c12)C(CC)(CC(=O)O)OCC3` (stereo not drawn) [Etodolac], inactive: 0.0282; that for `O=CN(O)CCCP(=O)(O)O` [Fosmidomycin sodium salt hydrate], inactive: -0.184.
Take `N=C(N)c1ccc(-c2ccc(-c3ccc(C(=N)N)cc3)o2)cc1` [Furamidine dihydrochloride]: the Z-score was inactive: -0.629.
Take `CC1=C(CC(=O)O)c2cc(F)ccc2/C1=C\c1ccc([S+](C)[O-])cc1` (stereo not drawn) [Sulindac]: the Z-score was inactive: -0.26.
For `NOCC(=O)O` [O-(Carboxymethyl) hydroxylamine hemiHCl], the Z-score was inactive: 1.02.
Turning to `CCOC(=O)[C@H](CCc1ccccc1)N[C@@H](C)C(=O)N1CCC[C@H]1C(=O)O` [Enalapril Maleate], the Z-score was inactive: -0.545.
Regarding `CCOC(=O)[C@H](CCc1ccccc1)N[C@@H](C)C(=O)N1CCC[C@H]1C(=O)O` [Enalapril], the Z-score is inactive: 0.63.
The figure for `NC[C@@H]1O[C@H](c2ccccc2)Cc2c1ccc(O)c2O` is inactive: -0.128; for `CN1CC2c3ccccc3Oc3ccc(Cl)cc3C2C1` (stereo not drawn) [Asenapine Maleate] it is inactive: 0.424; for `COc1cc(C(O)C(=O)O)ccc1O` (racemic) [(±)-  Vanillylmandelic acid] it is inactive: -0.285.
The result for `CC(=O)C(C)=O` [2,3-Butanedione] reads inactive: 0.521.
The result for `CN1[C@@H](CC(=O)c2ccccc2)CCC[C@H]1C[C@H](O)c1ccccc1` [alpha-Lobeline hydrochloride] reads inactive: 0.331; that for `CN1[C@@H](CC(=O)c2ccccc2)CCC[C@H]1C[C@H](O)c1ccccc1` [Lobeline·HCl], inactive: -0.314; that for `CCCCCCCN(CC)CCCC(O)c1ccc(NS(C)(=O)=O)cc1` (stereo not drawn) [Ibutilide Fumarate], inactive: 1.08.
Regarding `Cc1nnc(C(C)C)n1C1C[C@H]2CC[C@@H](C1)N2CC[C@H](NC(=O)C1CCC(F)(F)CC1)c1ccccc1` (stereo in doubt) [Maraviroc], the Z-score was inactive: 0.0715.
Turning to `C=C1C[C@]23C[C@@]1(O)CC[C@H]2[C@@]12C=C[C@H](O)[C@@](C)(C(=O)O1)[C@H]2[C@@H]3C(=O)O` [(+)-Gibberellic acid], the Z-score was inactive: -0.586.
